Results are given in words; binding and its absence hold for the method and conditions named. In cells and extracts the contact can be indirect.
Target: protein jagged‐1 (Jagged1) (human (endogenous in HUVEC)) (UniProt P78504)
Experiment: co-IP; Jag1 precipitated with antibody 28H8 from HUVEC lysates (50 mM Tris pH 7.5, 150 mM NaCl, 1% Triton X-100, 0.1% SDS; overnight 4 °C; magnetic beads; washes with 250 mM NaCl, 0.1% NP-40); cells static or exposed to flow (0.8 Pa FSS, orbital shaker); Western blot for VEGFR2 and Src

The chains behind the UniProt entries cited, without tags or fusion partners. Residues count along the entry.
UniProt P78504, residues 34-1218: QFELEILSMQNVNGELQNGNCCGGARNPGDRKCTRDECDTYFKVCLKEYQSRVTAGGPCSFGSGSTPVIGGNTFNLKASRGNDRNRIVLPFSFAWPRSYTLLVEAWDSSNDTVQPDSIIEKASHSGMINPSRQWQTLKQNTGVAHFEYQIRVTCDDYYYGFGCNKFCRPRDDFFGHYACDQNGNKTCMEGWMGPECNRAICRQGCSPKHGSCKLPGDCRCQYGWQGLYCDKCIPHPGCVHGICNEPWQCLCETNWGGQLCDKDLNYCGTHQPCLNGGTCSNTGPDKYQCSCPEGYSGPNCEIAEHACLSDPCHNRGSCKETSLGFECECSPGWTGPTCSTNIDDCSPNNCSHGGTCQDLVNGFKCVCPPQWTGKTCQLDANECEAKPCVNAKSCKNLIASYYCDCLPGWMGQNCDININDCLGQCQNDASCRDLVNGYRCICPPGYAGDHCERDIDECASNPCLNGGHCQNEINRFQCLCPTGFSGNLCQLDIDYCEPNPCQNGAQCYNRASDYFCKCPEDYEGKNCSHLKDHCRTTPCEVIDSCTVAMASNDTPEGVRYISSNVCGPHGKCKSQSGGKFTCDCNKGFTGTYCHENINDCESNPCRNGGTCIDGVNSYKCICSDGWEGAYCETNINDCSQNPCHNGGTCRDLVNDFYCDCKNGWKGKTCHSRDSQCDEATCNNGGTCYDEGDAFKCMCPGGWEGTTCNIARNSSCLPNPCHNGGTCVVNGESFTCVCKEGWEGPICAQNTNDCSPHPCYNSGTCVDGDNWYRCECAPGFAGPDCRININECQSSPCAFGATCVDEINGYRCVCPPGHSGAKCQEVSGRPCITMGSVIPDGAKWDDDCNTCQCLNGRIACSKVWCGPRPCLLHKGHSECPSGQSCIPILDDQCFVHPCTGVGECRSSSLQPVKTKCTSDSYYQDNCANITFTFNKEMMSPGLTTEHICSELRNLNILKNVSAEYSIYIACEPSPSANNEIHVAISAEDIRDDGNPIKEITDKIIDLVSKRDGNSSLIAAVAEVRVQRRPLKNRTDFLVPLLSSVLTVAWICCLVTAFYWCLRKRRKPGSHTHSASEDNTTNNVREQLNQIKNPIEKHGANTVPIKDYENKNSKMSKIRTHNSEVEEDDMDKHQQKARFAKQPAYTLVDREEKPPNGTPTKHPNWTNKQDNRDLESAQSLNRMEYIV
UniProt P35968, residues 20-1356: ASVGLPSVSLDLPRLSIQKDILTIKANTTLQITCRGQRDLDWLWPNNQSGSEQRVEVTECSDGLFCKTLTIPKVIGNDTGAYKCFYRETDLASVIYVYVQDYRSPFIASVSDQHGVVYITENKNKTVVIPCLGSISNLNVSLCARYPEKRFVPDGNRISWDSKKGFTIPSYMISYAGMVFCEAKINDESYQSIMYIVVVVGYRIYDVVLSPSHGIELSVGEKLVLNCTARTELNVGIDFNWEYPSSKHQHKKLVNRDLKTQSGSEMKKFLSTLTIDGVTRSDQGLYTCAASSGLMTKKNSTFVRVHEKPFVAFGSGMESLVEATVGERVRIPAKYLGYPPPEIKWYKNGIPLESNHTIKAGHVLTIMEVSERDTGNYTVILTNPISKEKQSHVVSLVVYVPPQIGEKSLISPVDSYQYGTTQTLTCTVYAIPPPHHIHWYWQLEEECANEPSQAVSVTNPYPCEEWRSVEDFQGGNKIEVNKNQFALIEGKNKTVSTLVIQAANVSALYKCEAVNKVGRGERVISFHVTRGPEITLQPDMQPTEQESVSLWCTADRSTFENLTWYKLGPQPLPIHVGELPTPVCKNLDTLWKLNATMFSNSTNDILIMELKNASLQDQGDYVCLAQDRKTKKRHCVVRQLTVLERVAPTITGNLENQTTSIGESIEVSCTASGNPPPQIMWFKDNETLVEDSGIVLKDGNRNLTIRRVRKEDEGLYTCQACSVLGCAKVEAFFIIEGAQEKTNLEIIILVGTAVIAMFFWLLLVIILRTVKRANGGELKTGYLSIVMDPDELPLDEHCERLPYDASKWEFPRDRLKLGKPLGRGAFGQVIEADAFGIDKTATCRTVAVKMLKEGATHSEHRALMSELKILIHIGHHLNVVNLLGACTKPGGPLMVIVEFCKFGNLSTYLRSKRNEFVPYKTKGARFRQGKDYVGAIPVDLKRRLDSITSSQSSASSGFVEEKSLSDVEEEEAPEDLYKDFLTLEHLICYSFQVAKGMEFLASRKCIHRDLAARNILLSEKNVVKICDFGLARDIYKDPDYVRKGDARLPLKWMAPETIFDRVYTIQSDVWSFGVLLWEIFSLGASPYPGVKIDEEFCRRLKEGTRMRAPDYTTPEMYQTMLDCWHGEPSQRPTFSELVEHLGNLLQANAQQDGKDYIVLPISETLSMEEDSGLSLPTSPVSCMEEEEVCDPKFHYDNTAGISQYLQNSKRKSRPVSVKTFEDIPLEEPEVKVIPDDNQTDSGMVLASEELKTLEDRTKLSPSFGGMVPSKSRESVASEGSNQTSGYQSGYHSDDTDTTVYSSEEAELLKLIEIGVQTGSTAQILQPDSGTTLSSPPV

binding: no binding
Substance: vascular endothelial growth factor receptor 2 (VEGFR2) (from UniProt P35968 20-1356)

Reference: PMC13440619
